PubChem BioAssay AID1259308 – NCATS, 2017
Here is one part, drawn at random, of about 59,000 deposited reagents. In the full data, about 1,510 (2.6%) were called active. 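Calls use total luciferase alone and ignore viability, so some active siRNAs may act by altering cell number.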 Reagents against one gene are numbered here. Not all columns of the deposit are shown. Reagent sequences are not shown.

Screen: 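Knock-downs that increase output of a recombinant reporter protein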 (primary screen)
Cell system: human HEK293 embryonic kidney cells stably expressing firefly luciferase (HEK-CMV-Luc2-Hygro)
Reagent: single siRNA against human genes, 0.8 pmol siRNA per well
Duration: 72 h
Read-out: 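Luciferase light (ONE-Glo) measured on one replicate plate set and viability (CellTiter-Glo) on the other, scaled to a negative control siRNA, with robust z-scores and luciferase per cell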
Direction: total luciferase, z-score and total luciferase, % of control: higher = more reporter protein produced
Call rule: 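Active when the median/MAD z-score for overall luciferase is greater than 3; a gene was taken forward for validation with new siRNAs if at least two of its three siRNAs passed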
Calls: active = raised luciferase; inactive = no rise

For TECR (trans-2,3-enoyl-CoA reductase) #1, what does the deposit list?
total luciferase, z-score: 1.46; total luciferase, % of control: 111; call: inactive

For TECR (trans-2,3-enoyl-CoA reductase) #2, what was measured?
total luciferase, z-score: 1.03; total luciferase, % of control: 102; call: inactive

With TECR (trans-2,3-enoyl-CoA reductase) #3, how do the results read?
total luciferase, z-score: -2.05; total luciferase, % of control: 41.1; call: inactive

With GMFB (glia maturation factor beta) #1, what does the deposit list?
total luciferase, z-score: -0.158; total luciferase, % of control: 78.7; call: inactive

With GMFB (glia maturation factor beta) #2, what does the deposit list?
total luciferase, z-score: 2.31; total luciferase, % of control: 128; call: inactive

For GMFB (glia maturation factor beta) #3, how do the results read?
total luciferase, z-score: 0.124; total luciferase, % of control: 84.4; call: inactive

For TEX101 (testis expressed 101) #1, how do the results read?
total luciferase, z-score: 1.82; total luciferase, % of control: 118; call: inactive

For TEX101 (testis expressed 101) #2, how do the results read?
total luciferase, z-score: 1; total luciferase, % of control: 102; call: inactive

What is on record for TEX101 (testis expressed 101) #3?
total luciferase, z-score: 0.91; total luciferase, % of control: 100; call: inactive

With MYH14 (myosin heavy chain 14) #1, what was measured?
total luciferase, z-score: 0.288; total luciferase, % of control: 87.6; call: inactive

Which result is listed for MYH14 (myosin heavy chain 14) #2?
total luciferase, z-score: 0.0799; total luciferase, % of control: 83.5; call: inactive

For MYH14 (myosin heavy chain 14) #3, what was measured?
total luciferase, z-score: -2.98; total luciferase, % of control: 22.7; call: inactive

What did the screen give for CNTFR (ciliary neurotrophic factor receptor) #1?
total luciferase, z-score: -0.756; total luciferase, % of control: 66.9; call: inactive

With CNTFR (ciliary neurotrophic factor receptor) #2, what was measured?
total luciferase, z-score: -1.18; total luciferase, % of control: 58.4; call: inactive

Which result is listed for CNTFR (ciliary neurotrophic factor receptor) #3?
total luciferase, z-score: 1.25; total luciferase, % of control: 107; call: inactive

With IDS (iduronate 2-sulfatase) #1, how do the results read?
total luciferase, z-score: -0.678; total luciferase, % of control: 68.4; call: inactive

What is on record for IDS (iduronate 2-sulfatase) #2?
total luciferase, z-score: 0.982; total luciferase, % of control: 101; call: inactive

With IDS (iduronate 2-sulfatase) #3, how do the results read?
total luciferase, z-score: 0.932; total luciferase, % of control: 100; call: inactive

With GPC3 (glypican 3) #1, what does the deposit list?
total luciferase, z-score: 1.99; total luciferase, % of control: 121; call: inactive

For GPC3 (glypican 3) #2, what was measured?
total luciferase, z-score: -1.49; total luciferase, % of control: 52.3; call: inactive

How did the screen score GPC3 (glypican 3) #3?
total luciferase, z-score: 1.41; total luciferase, % of control: 110; call: inactive

For ALCAM (activated leukocyte cell adhesion molecule) #1, what was measured?
total luciferase, z-score: -1.27; total luciferase, % of control: 56.7; call: inactive

Which result is listed for ALCAM (activated leukocyte cell adhesion molecule) #2?
total luciferase, z-score: -1.69; total luciferase, % of control: 48.2; call: inactive

With ALCAM (activated leukocyte cell adhesion molecule) #3, what was measured?
total luciferase, z-score: -0.626; total luciferase, % of control: 69.4; call: inactive

With KCNMB2 #1, what does the deposit list?
total luciferase, z-score: -1; total luciferase, % of control: 61.9; call: inactive

With KCNMB2 #2, what was measured?
total luciferase, z-score: -0.793; total luciferase, % of control: 66.1; call: inactive

What did the screen give for KCNMB2 #3?
total luciferase, z-score: -1.15; total luciferase, % of control: 59.1; call: inactive

With TTC5 (tetratricopeptide repeat domain 5) #1, how do the results read?
total luciferase, z-score: 0.203; total luciferase, % of control: 85.9; call: inactive

For TTC5 (tetratricopeptide repeat domain 5) #2, what was measured?
total luciferase, z-score: 0.514; total luciferase, % of control: 92.1; call: inactive

What is on record for TTC5 (tetratricopeptide repeat domain 5) #3?
total luciferase, z-score: -0.0583; total luciferase, % of control: 80.7; call: inactive

How did the screen score POPDC3 (popeye domain cAMP effector 3) #1?
total luciferase, z-score: -0.0916; total luciferase, % of control: 80.1; call: inactive

How did the screen score POPDC3 (popeye domain cAMP effector 3) #2?
total luciferase, z-score: -0.388; total luciferase, % of control: 74.2; call: inactive

What is on record for POPDC3 (popeye domain cAMP effector 3) #3?
total luciferase, z-score: 0.325; total luciferase, % of control: 88.4; call: inactive
